Publication PMC7924758, “IAA3-mediated repression of PIF proteins coordinates light and auxin signaling in Arabidopsis” (PLoS Genetics, 2021)
No constants are given. Whether binding was seen depends on the method and setting. Binding seen in cells or lysates may run through a third protein. Some entries that bind do so weakly or less than the wild type. Sequences can lack the tags named with a protein.

B1: PIF5 fused to the N-terminal fragment of luciferase (n-LUC) (protein, UniProt Q84LH8 1-444)
chain: MEQVFADWNFEDNFHMSTNKRSIRPEDELVELLWRDGQVVLQSQARREPSVQVQTHKQETLRKPNNIFLDNQETVQKPNYAALDDQETVSWIQYPPDDVIDPFESEFSSHFFSSIDHLGGPEKPRTIEETVKHEAQAMAPPKFRSSVITVGPSHCGSNQSTNIHQATTLPVSMSDRSKNVEERLDTSSGGSSGCSYGRNNKETVSGTSVTIDRKRKHVMDADQESVSQSDIGLTSTDDQTMGNKSSQRSGSTRRSRAAEVHNLSERRRRDRINERMKALQELIPHCSRTDKASILDEAIDYLKSLQMQLQVMWMGSGMAAAAAAAASPMMFPGVQSSPYINQMAMQSQMQLSQFPVMNRSAPQNHPGLVCQNPVQLQLQAQNQILSEQLARYMGGIPQMPPAGNQMQTVQQQPADMLGFGSPAGPQSQLSAPATTDSLHMGKIG
B2: PIF1 fused to the N-terminal fragment of luciferase (n-LUC) (protein, UniProt Q8GZM7 1-478)
chain: MHHFVPDFDTDDDYVNNHNSSLNHLPRKSITTMGEDDDLMELLWQNGQVVVQNQRLHTKKPSSSPPKLLPSMDPQQQPSSDQNLFIQEDEMTSWLHYPLRDDDFCSDLLFSAAPTATATATVSQVTAARPPVSSTNESRPPVRNFMNFSRLRGDFNNGRGGESGPLLSKAVVRESTQVSPSATPSAAASESGLTRRTDGTDSSAVAGGGAYNRKGKAVAMTAPAIEITGTSSSVVSKSEIEPEKTNVDDRKRKEREATTTDETESRSEETKQARVSTTSTKRSRAAEVHNLSERKRRDRINERMKALQELIPRCNKSDKASMLDEAIEYMKSLQLQIQMMSMGCGMMPMMYPGMQQYMPHMAMGMGMNQPIPPPSFMPFPNMLAAQRPLPTQTHMAGSGPQYPVHASDPSRVFVPNQQYDPTSGQPQYPAGYTDPYQQFRGLHPTQPPQFQNQATSYPSSSRVSSSKESEDHGNHTTG

Columns and labels:
[1] = biological target: T1, IAA3 fused to the C-terminal fragment of luciferase (c-LUC) (Arabidopsis thaliana) (UniProt Q38822); test: split reporter; firefly luciferase complementation imaging (LCI) in agroinfiltrated N. benthamiana leaves; PIFs on nLUC, IAA3 on cLUC; 1 mM luciferin
T1 sequence: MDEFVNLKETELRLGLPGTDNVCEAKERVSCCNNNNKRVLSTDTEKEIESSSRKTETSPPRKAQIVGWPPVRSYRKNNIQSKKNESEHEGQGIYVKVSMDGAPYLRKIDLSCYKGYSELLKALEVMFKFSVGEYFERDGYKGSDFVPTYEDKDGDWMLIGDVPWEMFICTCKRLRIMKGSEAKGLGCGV

[2] = biological target: T1, IAA3 fused to the C-terminal fragment of luciferase (c-LUC) (Arabidopsis thaliana); test: split reporter; firefly luciferase complementation imaging (LCI) in Arabidopsis protoplasts co-transformed with nLUC- and cLUC-tagged constructs, 12 to 16 h in darkness

binding [1]	binding [2]	Binder
binds	binds	B1
binds	binds	B2
